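293T-iDUX4 dual-reporter cells; luminescence of the tet-on Italica luciferase control is read after 24 h. The test concentration is not given here. Percent change in the Italica control signal; more negative values mean stronger inhibition, which points to nonspecific, tet-on or cytotoxic effects.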

Values are in %. Common to all entries: measured here: Italica tet-on control reporter. This is a side read-out of the assay, for part of the compounds, not drawn at random.

Compound,activity change (%)
Cc1ccccc1S(=O)(=O)N1CCCCN2[C@H](CO)[C@H](c3ccc(C#CCN(C)C)cc3)[C@@H]2C1,-13.98
O=C(c1ccncc1)N1CC[C@@H]2[C@H](CO)Nc3ccc(Br)cc3[C@@H]21,-35.65
N#C[C@H]1[C@H](c2ccccc2-c2ccccc2)[C@H](CO)N1C(=O)NC1CCCC1,-11.28
O=C(C[C@H]1CC[C@H]2[C@@H](COC[C@H](O)CN2Cc2ccccc2)O1)NCc1ccccc1Cl,-8.589
COc1ccc2c3c(n(C)c2c1)[C@@H](CO)N(Cc1cccc(F)c1)CC31CCN(C(=O)Cc2ccccc2)CC1,-57.16
O=S(=O)(c1ccc(F)cc1)N1C[C@@H]2N[C@H](C1)C2c1ccc(/C=C/c2ccccc2)cc1 (stereo partly shown),-69.78
CN1c2ccc(-c3ccc(C#N)cc3)cc2[C@@H]2[C@@H](CCN2C(=O)NC2CCCCC2)[C@@H]1CO,-32.97
Cn1cnc(S(=O)(=O)N2CCCCN3[C@H](C2)[C@@H](c2ccc(-c4cccc(F)c4)cc2)[C@@H]3CO)c1,-35.8
COc1cccc(NC(=O)N(C)C[C@@H]2OCc3ccccc3-c3c(n(C)c4ccccc34)C(=O)N([C@@H](C)CO)C[C@@H]2C)c1,-20.18
C/C=C/c1ccc([C@@H]2[C@H](CO)N3CCCCN(S(=O)(=O)c4cccc(C)c4)C[C@@H]23)cc1,-0.9944
COc1ccc(CN2C[C@H](O)COC[C@H]3O[C@@H](CC(=O)N4CCc5ccccc5C4)CC[C@@H]32)cc1,-14.51
COc1ccc2c3c(n(C)c2c1)[C@@H](CO)N(Cc1ccccc1OC)CC31CCN(C(=O)C2CC2)CC1,-20.75
CN(C)C(=O)c1cccc(-c2ccc3c(c2)[C@H]2[C@H](CCN2C(=O)Nc2cccc(F)c2)[C@@H](CO)N3C)c1,-13.54
O=C(Cc1cccnc1)N1CC(=O)N2[C@@H](CO)[C@H](c3ccc(C#CC4CCCCC4)cc3)[C@@H]2C1,-10.43
CO[C@@H]1CN(C)C(=O)c2ccc(NC(=O)c3nc4ccccc4s3)cc2OC[C@H](C)N(Cc2cccnc2)C[C@H]1C,-25.27
O=C(Cc1ccccc1)N1CC[C@@H]2[C@H](CO)Nc3ccc(-c4ccc(F)cc4)cc3[C@@H]21,-27.54
COc1ccccc1S(=O)(=O)N1C[C@@H]2N[C@H](C1)C2c1ccc(-c2ccc(F)cc2)cc1 (stereo partly shown),-18.56
Cc1cccc(-c2ccc([C@@H]3[C@@H](CO)N4C(=O)CN(C(=O)c5ccc6c(c5)OCO6)C[C@H]34)cc2)c1,-13.14
COc1ccc2c3c(n(C)c2c1)[C@@H](CO)NCC31CCN(Cc2cc(-c3ccccc3)on2)CC1,-46.84
CO[C@H]1CC[C@H]2CCN(C)C(=O)[C@H](C)N(C)C(=O)c3cccc(C#N)c3OC[C@H]1O2,-8.351
COc1ccc2c3c(n(C)c2c1)[C@H](CO)N(C(=O)Nc1cccc(F)c1)CC31CN(C)C1,-16.34
Fc1cccc(CN2C[C@@H]3N[C@H](C2)C3c2ccc(/C=C/c3ccccc3)cc2)c1 (stereo partly shown),-84.97
O=C(Cc1ccccc1)N1CC[C@@H]2[C@H](CO)Nc3ccc(C4=CCCCC4)cc3[C@@H]21,-69.95
CCCC#Cc1ccc([C@@H]2[C@H]3CN(C(=O)c4ccc5c(c4)OCO5)CCCCN3[C@H]2CO)cc1,-38.71
C[C@H](NC(=O)C[C@@H]1C[C@H]2c3cc(NS(=O)(=O)c4ccc(F)cc4)ccc3O[C@H]2[C@H](CO)O1)c1ccccc1,-5.588
Cc1ccccc1S(=O)(=O)N1CC[C@@H]2[C@@H](CO)Nc3ccc(-c4ccccc4F)cc3[C@@H]21,-6.269
C[C@H](CO)N1C[C@H](C)[C@@H](CN(C)C(=O)[C@H](C)c2ccccc2)OCc2ccccc2-c2ccccc2C1=O,-5.019
O=C(C[C@@H]1C[C@@H]2c3cc(NC(=O)Cc4ccncc4)ccc3O[C@@H]2[C@H](CO)O1)NCc1ccc(-c2ccccc2)cc1,-0.4462
COc1ccc(S(=O)(=O)N2C[C@H](O)COC[C@@H]3O[C@H](CC(=O)NCc4ccc(Cl)c(Cl)c4)CC[C@H]32)cc1,-20.27
Cc1cccc(-c2ccc([C@@H]3[C@H](CO)N4CCCCN(Cc5ccncc5)C[C@@H]34)cc2)c1,-16.85
COc1ccccc1-c1ccc2n(c1=O)C[C@@H]1[C@@H](CO)[C@H](C(=O)N3CCOCC3)[C@H]2N1CC1CC1,13.65
COc1cccc(NC(=O)N2CC(=O)N3[C@@H](CO)[C@@H](c4ccc(C#CC5CCCCC5)cc4)[C@@H]3C2)c1,-18.87
COCC(=O)N1CC[C@@H]2[C@H]1c1cc(-c3cccc(OC)c3)ccc1N(C)[C@@H]2CO,-7.989
O=C(C1CC1)N1CCCCN2[C@H](C1)[C@H](c1ccc(C#CC3CCCC3)cc1)[C@@H]2CO,-10.45
O=C(Nc1ccc(F)cc1)N1CCCCN2[C@H](CO)[C@@H](c3ccc(-c4cccc(F)c4)cc3)[C@@H]2C1,-7.953
CCCN1[C@H](C(=O)N[C@@H](C)c2ccccc2)[C@@H](CO)[C@@H]2Cn3c(ccc(-c4ccc(F)cc4)c3=O)[C@@H]21,-21.47
C/C=C/c1ccccc1[C@H]1[C@@H](CO)N(C(=O)NC2CCCCC2)[C@H]1C#N,-15.45
COc1ccccc1S(=O)(=O)N1C[C@@H]2N[C@H](C1)C2c1ccc(-c2cccc(F)c2)cc1 (stereo partly shown),-7.444
O=C(Nc1ccc2c(c1)[C@@H]1C[C@@H](CC(=O)N3CCc4ccccc4C3)O[C@H](CO)[C@@H]1O2)Nc1ccccc1F,-3.756
O=C1CN(S(=O)(=O)c2ccccc2)C[C@@H]2[C@H](c3ccc(C#CCc4ccccc4)cc3)[C@H](CO)N12,-15.79
CN1c2ccc(-c3cccc(C#N)c3)cc2[C@H]2[C@H](CCN2S(=O)(=O)c2ccccc2F)[C@@H]1CO,-21.84
OC[C@H]1[C@H](c2ccc(C#Cc3ccccc3)cc2)[C@@H]2CN(CC3CCOCC3)CCCCN12,-6.623
O=C(C[C@H]1CC[C@H]2[C@@H](COC[C@H](O)CN2CCC(F)(F)F)O1)NCc1ccc(Oc2ccccc2)cc1,-36.83
COc1ccc2c3c([nH]c2c1)[C@@H](CO)N(C(=O)CN(C)C)CC31CN(Cc2ccccc2Cl)C1,-96.76
COc1cccc(CN2C[C@@H]3N[C@H](C2)C3c2ccc(-c3ccccc3OC)cc2)c1 (stereo partly shown),-2.748
Cc1ccccc1S(=O)(=O)N(C)C[C@@H]1OCc2ccccc2-c2c(n(C)c3ccccc23)C(=O)N([C@@H](C)CO)C[C@H]1C,-27.31
CN(C)C(=O)c1ccc(-c2ccc([C@H]3[C@H](C#N)N(C(=O)C4CCC4)[C@H]3CO)cc2)cc1,-19.38
COc1ccc2c3c(n(C)c2c1)[C@H](CO)N(C(=O)Nc1ccccc1F)CC31CCN(C(=O)c2ccccc2)CC1,-78.37
OC[C@H]1[C@H](c2ccc(C#Cc3ccccc3F)cc2)[C@H]2CN(Cc3cncnc3)CCCCN21,-26.11
O=C(C[C@H]1C[C@@H]2c3cc(NS(=O)(=O)c4ccc(F)cc4)ccc3O[C@@H]2[C@@H](CO)O1)N1CCc2ccccc2C1,-56.86
CS(=O)(=O)N1CC(=O)N2[C@H](CO)[C@@H](c3ccc(C#CCc4ccccc4)cc3)[C@@H]2C1,4.554
COCC(=O)N1CC2(CCN(Cc3ccccc3)CC2)c2c([nH]c3cc(OC)ccc23)[C@@H]1CO,-40.71

Some entries from above, unchanged:

- Fc1cccc(CN2C[C@@H]3N[C@H](C2)C3c2ccc(/C=C/c3ccccc3)cc2)c1 (stereo partly shown) | activity change -84.97%
- O=C(C[C@H]1C[C@@H]2c3cc(NS(=O)(=O)c4ccc(F)cc4)ccc3O[C@@H]2[C@@H](CO)O1)N1CCc2ccccc2C1 | activity change -56.86%
- COc1cccc(NC(=O)N2CC(=O)N3[C@@H](CO)[C@@H](c4ccc(C#CC5CCCCC5)cc4)[C@@H]3C2)c1 | activity change -18.87%
- C[C@H](NC(=O)C[C@@H]1C[C@H]2c3cc(NS(=O)(=O)c4ccc(F)cc4)ccc3O[C@H]2[C@H](CO)O1)c1ccccc1 | activity change -5.588%

Data taken from PubChem BioAssay AID1224904, deposited by Broad Institute (2016).